Laboratory results as given in publication PMC12074021.
Results are given in words; binding and its absence hold for the method and conditions named. In cells and extracts the contact can be indirect. Some entries that bind do so weakly or less than the wild type.

The chains behind the UniProt entries cited, without tags or fusion partners.
UniProt Q9ES90: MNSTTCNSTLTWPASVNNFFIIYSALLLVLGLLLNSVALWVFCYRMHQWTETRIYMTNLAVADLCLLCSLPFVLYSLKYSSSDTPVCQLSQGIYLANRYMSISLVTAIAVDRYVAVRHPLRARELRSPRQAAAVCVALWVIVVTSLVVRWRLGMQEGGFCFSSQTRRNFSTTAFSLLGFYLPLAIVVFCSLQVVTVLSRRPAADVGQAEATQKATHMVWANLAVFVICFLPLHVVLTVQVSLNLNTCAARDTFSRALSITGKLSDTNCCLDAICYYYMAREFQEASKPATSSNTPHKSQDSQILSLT
UniProt Q9EPK8: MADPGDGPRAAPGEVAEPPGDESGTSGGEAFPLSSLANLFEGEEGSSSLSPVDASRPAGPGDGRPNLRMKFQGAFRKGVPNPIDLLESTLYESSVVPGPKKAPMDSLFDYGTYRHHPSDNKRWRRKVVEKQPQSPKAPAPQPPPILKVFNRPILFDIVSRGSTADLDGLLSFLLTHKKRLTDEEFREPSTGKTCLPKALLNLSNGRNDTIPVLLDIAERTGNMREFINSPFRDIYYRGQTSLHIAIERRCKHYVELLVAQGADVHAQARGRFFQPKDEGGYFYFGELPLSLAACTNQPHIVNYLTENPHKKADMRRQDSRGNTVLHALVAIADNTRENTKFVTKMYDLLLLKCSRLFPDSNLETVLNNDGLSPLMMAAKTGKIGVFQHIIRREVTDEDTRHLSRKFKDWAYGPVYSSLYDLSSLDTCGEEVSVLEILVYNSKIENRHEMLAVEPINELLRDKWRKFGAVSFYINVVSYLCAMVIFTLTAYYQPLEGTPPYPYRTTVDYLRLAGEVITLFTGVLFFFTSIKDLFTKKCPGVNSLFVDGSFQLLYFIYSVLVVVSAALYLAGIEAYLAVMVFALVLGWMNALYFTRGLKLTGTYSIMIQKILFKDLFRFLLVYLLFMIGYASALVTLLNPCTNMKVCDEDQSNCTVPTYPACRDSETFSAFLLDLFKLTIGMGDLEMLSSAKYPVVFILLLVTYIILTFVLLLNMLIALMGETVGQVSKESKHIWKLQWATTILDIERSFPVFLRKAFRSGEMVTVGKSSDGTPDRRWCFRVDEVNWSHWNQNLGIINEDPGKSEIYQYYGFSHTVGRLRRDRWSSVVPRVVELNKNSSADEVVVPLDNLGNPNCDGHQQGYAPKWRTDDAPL

What was measured:
[1] = target: G protein-coupled receptor 35 (GPR35) (mouse (endogenous in primary mesenteric artery ECs)) (UniProt Q9ES90); experiment: co-IP; lysates of primary mesenteric ECs from WT-young and WT-aging mice; IP buffer 50 mmol/L Tris-HCl pH 7.4, 150 mmol/L NaCl, 0.3% NP-40, 2 mmol/L EDTA; IP with anti-GPR35 antibody or control IgG overnight at 4°C, IB with anti-TRPV4 antibody; aging ECs also incubated with Thonningianin A (10 μM), Carfilzomib (1 μM), Naringin (10 μM), Diosmin (10 μM) or Navitoclax (1 μM) for 30 min before harvest
[2] = target: G protein-coupled receptor 35 (GPR35) (mouse (endogenous in primary mesenteric artery ECs)) (UniProt Q9ES90); experiment: proximity ligation; Duolink PLA on fixed, permeabilised primary mesenteric ECs from WT-young and WT-aging mice (TRPV4EC-/- and AAV-FLT1-shRNA (GPR35) ECs as controls); aging ECs also treated with Thonningianin A (10 μM) or Carfilzomib (1 μM)

- binding [1]: binds
- binding [2]: binds
Substance: Transient receptor potential channel V4 (TRPV4) (from UniProt Q9EPK8 1-871)
